Measurements taken from patent publication US12441760 (dated 2025).

Tests used:
[1] = general procedure: Fmoc solid-phase peptide synthesis; Gly-O-CTC resin; DIC/HOBt; conditions: whole synthesis, scale 1.0 mmol
[2] = general procedure: Fmoc solid-phase peptide synthesis; H-Gly-OCTC resin; DIC/HOBt; conditions: whole synthesis, scale 1.0 mmol
[3] = general procedure: Fmoc solid-phase peptide synthesis; Fmoc-Lys(Trt-Glu-OtBu)-O-CTC-resin; DIC/HOBt; conditions: whole synthesis, scale 0.24 mmol

In the case of “Erythropoietin 1-28 Thioester Modified with 2-oxo-5-(17-oxooctadecanamido)hexanedioyl Ile-Ile”, the “crude HPLC purity” value ([1]; HPLC) is reported as 82%, the crude mass [1] is reported as 3.13 g and the crude yield [1] is reported as 96.4%.

For “GLP-1 (7-37) Modified at the Side Chain of Lys^26 with 2-(6-(8-(1-carboxy-2-methylpropylamino)-8-oxooctylthio)hexanamido)pentanedioic Acid”, the “crude purity (method not given)” value ([2]; HPLC) was 77%, the “final HPLC purity” value ([2]; HPLC) was 99.6% and the isolated mass [2] was 2.51 g. For the same substance, the isolated yield [2] was 63%.

For “Partially Protected N^εB29—(H-Glu-OtBu) Des B30 Human Insulin B-Chain”, the crude mass [3] was 1.24 g and the crude yield [3] was 83.2%.
